The source of these data is US20180320217A1, “METHODS FOR SAMPLING AND MEASURING ORAL LAVAGE PROTEINS” (The Procter & Gamble Company, priority 2017, published 2018).

To fix the notation:
B1: Coactosin-like protein (protein, UniProt Q14019 2-142, looked up)
Coactosin-like protein: ATKIDKEACRAAYNLVRDDGSAVIWVTFKYDGSTIVPGEQGAEYQHFIQQCTDDVRLFAFVRFTTGDAMSKRSKFALITWIGENVSGLQRAKTGTDKTLVKEVVQNFAKEFVISDRKELEEDFIKSELKKAGGANYDAQTE
B2: Cadherin-5 (protein, UniProt P33151 48-784, looked up)
Cadherin-5: DWIWNQMHIDEEKNTSLPHHVGKIKSSVSRKNAKYLLKGEYVGKVFRVDAETGDVFAIERLDRENISEYHLTAVIVDKDTGENLETPSSFTIKVHDVNDNWPVFTHRLFNASVPESSAVGTSVISVTAVDADDPTVGDHASVMYQILKGKEYFAIDNSGRIITITKSLDREKQARYEIVVEARDAQGLRGDSGTATVLVTLQDINDNFPFFTQTKYTFVVPEDTRVGTSVGSLFVEDPDEPQNRMTKYSILRGDYQDAFTIETNPAHNEGIIKPMKPLDYEYIQQYSFIVEATDPTIDLRYMSPPAGNRAQVIINITDVDEPPIFQQPFYHFQLKENQKKPLIGTVLAMDPDAARHSIGYSIRRTSDKGQFFRVTKKGDIYNEKELDREVYPWYNLTVEAKELDSTGTPTGKESIVQVHIEVLDENDNAPEFAKPYQPKVCENAVHGQLVLQISAIDKDITPRNVKFKFILNTENNFTLTDNHDNTANITVKYGQFDREHTKVHFLPVVISDNGMPSRTGTSTLTVAVCKCNEQGEFTFCEDMAAQVGVSIQAVVAILLCILTITVITLLIFLRRRLRKQARAHGKSVPEIHEQLVTYDEEGGGEMDTTSYDVSVLNSVRRGGAKPPRPALDARPSLYAQVQKPPRHAPGAHGGPGEMAAMIEVKKDEADHDGDGPPYDTLHIYGYEGSESIAESLSSLGTDSSDSDVDYDFLNDWGPRFKMLAELYGSDPREELLY
B3: CD166 antigen (protein, UniProt Q13740 28-583, looked up)
CD166 antigen: WYTVNSAYGDTIIIPCRLDVPQNLMFGKWKYEKPDGSPVFIAFRSSTKKSVQYDDVPEYKDRLNLSENYTLSISNARISDEKRFVCMLVTEDNVFEAPTIVKVFKQPSKPEIVSKALFLETEQLKKLGDCISEDSYPDGNITWYRNGKVLHPLEGAVVIIFKKEMDPVTQLYTMTSTLEYKTTKADIQMPFTCSVTYYGPSGQKTIHSEQAVFDIYYPTEQVTIQVLPPKNAIKEGDNITLKCLGNGNPPPEEFLFYLPGQPEGIRSSNTYTLTDVRRNATGDYKCSLIDKKSMIASTAITVHYLDLSLNPSGEVTRQIGDALPVSCTISASRNATVVWMKDNIRLRSSPSFSSLHYQDAGNYVCETALQEVEGLKKRESLTLIVEGKPQIKMTKKTDPSGLSKTIICHVEGFPKPAIQWTITGSGSVINQTEESPYINGRYYSKIIISPEENVTLTCTAENQLERTVNSLNVSAISIPEHDEADEISDENREKVNDQAKLIVGIVVGLLLAALVAGVVYWLYMKKSKTASKHVNKDLGNMEENKKLEENNHKTEA
B4: Calpain I (protein, UniProt P07384 2-714; P04632 1-268, looked up)
Calpain-1 catalytic subunit: SEEIITPVYCTGVSAQVQKQRARELGLGRHENAIKYLGQDYEQLRVRCLQSGTLFRDEAFPPVPQSLGYKDLGPNSSKTYGIKWKRPTELLSNPQFIVDGATRTDICQGALGDCWLLAAIASLTLNDTLLHRVVPHGQSFQNGYAGIFHFQLWQFGEWVDVVVDDLLPIKDGKLVFVHSAEGNEFWSALLEKAYAKVNGSYEALSGGSTSEGFEDFTGGVTEWYELRKAPSDLYQIILKALERGSLLGCSIDISSVLDMEAITFKKLVKGHAYSVTGAKQVNYRGQVVSLIRMRNPWGEVEWTGAWSDSSSEWNNVDPYERDQLRVKMEDGEFWMSFRDFMREFTRLEICNLTPDALKSRTIRKWNTTLYEGTWRRGSTAGGCRNYPATFWVNPQFKIRLDETDDPDDYGDRESGCSFVLALMQKHRRRERRFGRDMETIGFAVYEVPPELVGQPAVHLKRDFFLANASRARSEQFINLREVSTRFRLPPGEYVVVPSTFEPNKEGDFVLRFFSEKSAGTVELDDQIQANLPDEQVLSEEEIDENFKALFRQLAGEDMEISVKELRTILNRIISKHKDLRTKGFSLESCRSMVNLMDRDGNGKLGLVEFNILWNRIRNYLSIFRKFDLDKSGSMSAYEMRMAIESAGFKLNKKLYELIITRYSEPDLAVDFDNFVCCLVRLETMFRFFKTLDTDLDGVVTFDLFKWLQLTMFA
Calpain small subunit 1: MFLVNSFLKGGGGGGGGGGGLGGGLGNVLGGLISGAGGGGGGGGGGGGGGGGGGGGTAMRILGGVISAISEAAAQYNPEPPPPRTHYSNIEANESEEVRQFRRLFAQLAGDDMEVSATELMNILNKVVTRHPDLKTDGFGIDTCRSMVAVMDSDTTGKLGFEEFKYLWNNIKRWQAIYKQFDTDRSGTICSSELPGAFEAAGFHLNEHLYNMIIRRYSDESGNMDFDNFISCLVRLDAMFRAFKSLDKDGTGQIQVNIQEWLQLTMYS
B5: Cathepsin F (protein, UniProt Q9UBX1 271-484, looked up)
Cathepsin F: APPEWDWRSKGAVTKVKDQGMCGSCWAFSVTGNVEGQWFLNQGTLLSLSEQELLDCDKMDKACMGGLPSNAYSAIKNLGGLETEDDYSYQGHMQSCNFSAEKAKVYINDSVELSQNEQKLAAWLAKRGPISVAINAFGMQFYRHGISRPLRPLCSPWLIDHAVLLVGYGNRSDVPFWAIKNSWGTDWGEKGYYYLHRGSGACGVNTMASSAVVD
B6: Cathepsin S (protein, UniProt P25774 115-331, looked up)
Cathepsin S: LPDSVDWREKGCVTEVKYQGSCGACWAFSAVGALEAQLKLKTGKLVSLSAQNLVDCSTEKYGNKGCNGGFMTTAFQYIIDNKGIDSDASYPYKAMDQKCQYDSKYRAATCSKYTELPYGREDVLKEAVANKGPVSVGVDARHPSFFLYRSGVYYEPSCTQNVNHGVLVVGYGDLNGKEYWLVKNSWGHNFGEEGYIRMARNKGNHCGIASFPSYPEI
B7: CD209 antigen (protein, UniProt Q9NNX6 1-404, looked up)
CD209 antigen: MSDSKEPRLQQLGLLEEEQLRGLGFRQTRGYKSLAGCLGHGPLVLQLLSFTLLAGLLVQVSKVPSSISQEQSRQDAIYQNLTQLKAAVGELSEKSKLQEIYQELTQLKAAVGELPEKSKLQEIYQELTRLKAAVGELPEKSKLQEIYQELTWLKAAVGELPEKSKMQEIYQELTRLKAAVGELPEKSKQQEIYQELTRLKAAVGELPEKSKQQEIYQELTRLKAAVGELPEKSKQQEIYQELTQLKAAVERLCHPCPWEWTFFQGNCYFMSNSQRNWHDSITACKEVGAQLVVIKSAEEQNFLQLQSSRSNRFTWMGLSDLNQEGTWQWVDGSPLLPSFKQYWNRGEPNNVGEEDCAEFSGNGWNDDKCNLAKFWICKKSAASCSRDEEQFLSPAPATPNPPPA
B8: Carbohydrate sulfotransferase 15 (protein, UniProt Q7LFX5 1-561, looked up)
Carbohydrate sulfotransferase …: MRHCINCCIQLLPDGAHKQQVNCQGGPHHGHQACPTCKGENKILFRVDSKQMNLLAVLEVRTEGNENWGGFLRFKKGKRCSLVFGLIIMTLVMASYILSGAHQELLISSPFHYGGFPSNPSLMDSENPSDTKEHHHQSSVNNISYMKDYPSIKLIINSITTRIEFTTRQLPDLEDLKKQELHMFSVIPNKFLPNSKSPCWYEEFSGQNTTDPYLTNSYVLYSKRFRSTFDALRKAFWGHLAHAHGKHFRLRCLPHFYIIGQPKCGTTDLYDRLRLHPEVKFSAIKEPHWWTRKRFGIVRLRDGLRDRYPVEDYLDLFDLAAHQIHQGLQASSAKEQSKMNTIIIGEASASTMWDNNAWTFFYDNSTDGEPPFLTQDFIHAFQPNARLIVMLRDPVERLYSDYLYFASSNKSADDFHEKVTEALQLFENCMLDYSLRACVYNNTLNNAMPVRLQVGLYAVYLLDWLSVFDKQQFLILRLEDHASNVKYTMHKVFQFLNLGPLSEKQEALMTKSPASNARRPEDRNLGPMWPITQKILRDFYRPFNARLAQVLADEAFAWKTT
B9: CD83 antigen (protein, UniProt Q01151 20-205, looked up)
CD83 antigen: TPEVKVACSEDVDLPCTAPWDPQVPYTVSWVKLLEGGEERMETPQEDHLRGQHYHQKGQNGSFDAPNERPYSLKIRNTTSCNSGTYRCTLQDPDGQRNLSGKVILRVTGCPAQRKEETFKKYRAEIVLLLALVIFYLTLIIFTCKFARLQSIFPDFSKAGMERAFLPVTSPNKHLGLVTPHKTELV

In one series the test system is proteins in oral lavage. Put plainly: Abundance of proteins in human oral lavage (SomaLogic), TABLE 1. The series is classed as in vivo. As to conditions: abundance in oral lavage; high bleeders (gingivitis), baseline.
On to B1, for which the “Means (Original Scale) High bleeder BL” value is reported as 2271.

With B2, the “Means (Original Scale) High bleeder BL” value turned out to be 1720.

For the molecule B3, the “Means (Original Scale) High bleeder BL” value is 7301.

B4: the “Means (Original Scale) High bleeder BL” value came out at 112397.

With B5, the “Means (Original Scale) High bleeder BL” value came to 8192.

As for B6, the “Means (Original Scale) High bleeder BL” value came out at 18016.

Regarding B7, the “Means (Original Scale) High bleeder BL” value came to 262.

For the molecule B8, the “Means (Original Scale) High bleeder BL” value was 713.

In the case of B9, the “Means (Original Scale) High bleeder BL” value amounted to 130.

Still in this series, the particulars now being: abundance in oral lavage; high bleeders, week 4 of investigative products.
On to B1, for which the “Means (Original Scale) High bleeder W4” value came out at 1213.

Consider B2, for which the “Means (Original Scale) High bleeder W4” value was 807.

Take B3: the “Means (Original Scale) High bleeder W4” value stood at 4033.

For the molecule B4, the “Means (Original Scale) High bleeder W4” value worked out at 50592.

Take B5: the “Means (Original Scale) High bleeder W4” value was determined as 3442.

For B6, the “Means (Original Scale) High bleeder W4” value amounted to 9075.

As to B7, the “Means (Original Scale) High bleeder W4” value is on record as 176.

For the molecule B8, the “Means (Original Scale) High bleeder W4” value turned out to be 348.

Regarding B9, the “Means (Original Scale) High bleeder W4” value came out at 78.

The series is the same for the next values; noted with them: abundance in oral lavage; low bleeders (healthy), baseline.
As to B1, the “Means (Original Scale) Low bleeder BL” value turned out to be 512.

For the molecule B2, the “Means (Original Scale) Low bleeder BL” value stood at 252.

For B3, the “Means (Original Scale) Low bleeder BL” value was determined as 2616.

In the case of B4, the “Means (Original Scale) Low bleeder BL” value stood at 25144.

With B5, the “Means (Original Scale) Low bleeder BL” value amounted to 1136.

With B6, the “Means (Original Scale) Low bleeder BL” value came out at 2396.

Turning to B7, the “Means (Original Scale) Low bleeder BL” value is given as 76.

For the molecule B8, the “Means (Original Scale) Low bleeder BL” value was 71.

On to B9, for which the “Means (Original Scale) Low bleeder BL” value turned out to be 52.

The same series, now with this note: oral lavage; high bleeders vs low bleeders at baseline.
For the molecule B1, the “Fold Change High bleeder BL vs Low bleeder BL” value (from here on “Fold Change High bleeder BL”) worked out at 3.84.

B2: the “Fold Change High bleeder BL” value turned out to be 5.83.

Turning to B3, the “Fold Change High bleeder BL” value was determined as 2.50.

Take B4: the “Fold Change High bleeder BL” value is on record as 5.97.

B5: the “Fold Change High bleeder BL” value worked out at 4.94.

Turning to B6, the “Fold Change High bleeder BL” value is on record as 7.16.

In the case of B7, the “Fold Change High bleeder BL” value is listed as 3.22.

For the molecule B8, the “Fold Change High bleeder BL” value is listed as 8.61.

On to B9, for which the “Fold Change High bleeder BL” value was found to be 2.28.

The same series, now with this note: oral lavage; week 4 of investigative products vs baseline, high bleeders.
With B1, the “Fold Change High bleeder W4 vs High bleeder BL” value (from here on “Fold Change High bleeder W4”) is given as 0.60.

Consider B2, for which the “Fold Change High bleeder W4” value amounted to 0.53.

As to B3, the “Fold Change High bleeder W4” value was found to be 0.61.

Consider B4, for which the “Fold Change High bleeder W4” value stood at 0.51.

With B5, the “Fold Change High bleeder W4” value came to 0.59.

With B6, the “Fold Change High bleeder W4” value came to 0.65.

Regarding B7, the “Fold Change High bleeder W4” value amounted to 0.70.

For the molecule B8, the “Fold Change High bleeder W4” value came to 0.60.

Take B9: the “Fold Change High bleeder W4” value is 0.66.
